From article PMC3474823
No constants are given. Whether binding was seen depends on the method and setting. Binding seen in cells or lysates may run through a third protein. Some results given as binding are weak or reduced against the parent protein; the word gives no strength. For part of these data: Tags and fused reporters may be left off the sequences shown.

Sequences of proteins named here, by UniProt entry; tags and fusion partners are left off. A change or cut given only in a name is not applied to a line headed by its entry. A line that says so, or that is headed by a name, gives the form on record, which may keep a tag or linker.
endogenous Nf1 (neurofibromin) (P21359-2, form named): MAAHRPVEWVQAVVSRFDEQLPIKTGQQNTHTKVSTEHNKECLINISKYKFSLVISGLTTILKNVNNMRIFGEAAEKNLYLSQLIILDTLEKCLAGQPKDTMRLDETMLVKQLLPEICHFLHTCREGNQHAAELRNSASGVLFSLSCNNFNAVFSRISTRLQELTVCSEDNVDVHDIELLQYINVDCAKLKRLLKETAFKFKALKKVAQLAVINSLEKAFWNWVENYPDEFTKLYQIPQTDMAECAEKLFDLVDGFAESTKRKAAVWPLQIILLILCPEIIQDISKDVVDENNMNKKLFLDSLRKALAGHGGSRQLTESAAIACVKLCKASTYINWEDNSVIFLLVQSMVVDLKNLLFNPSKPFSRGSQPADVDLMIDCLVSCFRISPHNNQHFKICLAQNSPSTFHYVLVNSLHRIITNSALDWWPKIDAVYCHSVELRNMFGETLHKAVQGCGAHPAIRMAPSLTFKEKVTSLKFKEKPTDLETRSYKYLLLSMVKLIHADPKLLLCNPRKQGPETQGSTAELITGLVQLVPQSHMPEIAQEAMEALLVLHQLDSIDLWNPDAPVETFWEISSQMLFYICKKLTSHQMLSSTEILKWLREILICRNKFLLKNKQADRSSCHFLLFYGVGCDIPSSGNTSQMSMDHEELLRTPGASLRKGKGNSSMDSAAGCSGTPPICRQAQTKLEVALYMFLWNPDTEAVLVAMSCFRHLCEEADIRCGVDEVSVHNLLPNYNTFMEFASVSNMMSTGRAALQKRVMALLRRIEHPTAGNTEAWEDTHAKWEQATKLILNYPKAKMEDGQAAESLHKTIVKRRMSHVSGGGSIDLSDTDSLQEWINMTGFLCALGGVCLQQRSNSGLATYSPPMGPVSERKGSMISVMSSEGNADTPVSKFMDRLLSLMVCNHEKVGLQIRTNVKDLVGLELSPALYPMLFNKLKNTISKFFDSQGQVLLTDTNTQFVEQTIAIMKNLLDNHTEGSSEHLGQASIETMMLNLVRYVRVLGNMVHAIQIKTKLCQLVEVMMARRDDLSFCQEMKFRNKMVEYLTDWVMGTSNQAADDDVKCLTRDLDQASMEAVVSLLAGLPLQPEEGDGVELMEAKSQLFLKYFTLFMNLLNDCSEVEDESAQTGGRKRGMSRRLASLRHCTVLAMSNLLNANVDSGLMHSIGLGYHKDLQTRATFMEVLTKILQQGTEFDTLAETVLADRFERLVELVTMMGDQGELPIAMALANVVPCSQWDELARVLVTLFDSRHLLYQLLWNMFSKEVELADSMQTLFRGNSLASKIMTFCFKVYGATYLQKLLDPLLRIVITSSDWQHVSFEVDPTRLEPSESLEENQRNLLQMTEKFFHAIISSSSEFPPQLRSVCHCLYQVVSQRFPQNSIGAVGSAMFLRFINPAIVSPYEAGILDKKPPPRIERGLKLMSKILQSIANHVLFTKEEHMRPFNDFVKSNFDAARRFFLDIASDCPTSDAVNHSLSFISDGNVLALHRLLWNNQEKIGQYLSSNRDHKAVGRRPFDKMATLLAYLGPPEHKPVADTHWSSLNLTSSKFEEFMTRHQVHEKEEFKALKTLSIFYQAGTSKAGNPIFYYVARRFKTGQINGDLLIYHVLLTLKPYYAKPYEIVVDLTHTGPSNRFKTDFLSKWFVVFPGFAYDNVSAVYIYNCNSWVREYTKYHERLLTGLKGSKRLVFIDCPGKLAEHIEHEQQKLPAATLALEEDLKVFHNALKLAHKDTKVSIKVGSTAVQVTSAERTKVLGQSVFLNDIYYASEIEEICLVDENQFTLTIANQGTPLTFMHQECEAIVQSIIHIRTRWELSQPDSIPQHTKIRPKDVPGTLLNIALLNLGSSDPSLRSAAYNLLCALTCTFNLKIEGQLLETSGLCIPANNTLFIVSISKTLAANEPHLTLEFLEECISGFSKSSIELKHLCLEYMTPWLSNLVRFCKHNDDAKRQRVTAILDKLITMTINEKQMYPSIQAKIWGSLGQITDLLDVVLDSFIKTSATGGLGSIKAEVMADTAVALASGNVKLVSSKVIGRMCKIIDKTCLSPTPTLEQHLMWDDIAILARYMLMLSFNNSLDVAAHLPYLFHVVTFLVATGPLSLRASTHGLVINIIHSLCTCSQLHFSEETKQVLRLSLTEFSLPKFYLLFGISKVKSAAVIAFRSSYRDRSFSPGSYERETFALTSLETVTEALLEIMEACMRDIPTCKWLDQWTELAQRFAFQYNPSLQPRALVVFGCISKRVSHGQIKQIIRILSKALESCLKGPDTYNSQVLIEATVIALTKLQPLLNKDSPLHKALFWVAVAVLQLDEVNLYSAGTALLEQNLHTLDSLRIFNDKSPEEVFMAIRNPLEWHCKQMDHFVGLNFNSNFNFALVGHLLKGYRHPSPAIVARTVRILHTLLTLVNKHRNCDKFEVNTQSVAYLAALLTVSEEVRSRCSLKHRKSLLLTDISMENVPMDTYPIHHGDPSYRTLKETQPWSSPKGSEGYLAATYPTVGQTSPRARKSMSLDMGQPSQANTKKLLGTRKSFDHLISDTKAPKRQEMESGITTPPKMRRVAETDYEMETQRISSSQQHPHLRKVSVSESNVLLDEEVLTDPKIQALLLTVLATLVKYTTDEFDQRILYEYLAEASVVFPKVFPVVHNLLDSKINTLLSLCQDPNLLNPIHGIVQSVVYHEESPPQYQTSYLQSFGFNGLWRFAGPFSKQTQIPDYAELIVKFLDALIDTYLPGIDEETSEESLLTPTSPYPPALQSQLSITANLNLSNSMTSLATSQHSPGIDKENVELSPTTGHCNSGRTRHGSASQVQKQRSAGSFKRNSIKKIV

Legend:
[1] = molecular target: endogenous Nf1 (neurofibromin) (human (endogenous in HEK-293)) (UniProt P21359); assay: co-IP; endogenous proteins of HEK-293 lysate; anti-Nf1 antibodies coupled to sepharose beads; endogenous LIMK2 detected by immunoblot
[2] = molecular target: HA-LIMK2 (pcDNA3-(HA)2-LIMK2) (UniProt P53671); assay: co-IP; HEK-293 cells transfected with HA-LIMK2 (WT, TA or TEE); anti-HA immunoprecipitation; endogenous Nf1 detected by immunoblot
[3] = molecular target: T1, HA-LIMK2-T505A (pcDNA3-(HA)2-LIMK2-T505A) (UniProt P53671); assay: as above
T1 sequence: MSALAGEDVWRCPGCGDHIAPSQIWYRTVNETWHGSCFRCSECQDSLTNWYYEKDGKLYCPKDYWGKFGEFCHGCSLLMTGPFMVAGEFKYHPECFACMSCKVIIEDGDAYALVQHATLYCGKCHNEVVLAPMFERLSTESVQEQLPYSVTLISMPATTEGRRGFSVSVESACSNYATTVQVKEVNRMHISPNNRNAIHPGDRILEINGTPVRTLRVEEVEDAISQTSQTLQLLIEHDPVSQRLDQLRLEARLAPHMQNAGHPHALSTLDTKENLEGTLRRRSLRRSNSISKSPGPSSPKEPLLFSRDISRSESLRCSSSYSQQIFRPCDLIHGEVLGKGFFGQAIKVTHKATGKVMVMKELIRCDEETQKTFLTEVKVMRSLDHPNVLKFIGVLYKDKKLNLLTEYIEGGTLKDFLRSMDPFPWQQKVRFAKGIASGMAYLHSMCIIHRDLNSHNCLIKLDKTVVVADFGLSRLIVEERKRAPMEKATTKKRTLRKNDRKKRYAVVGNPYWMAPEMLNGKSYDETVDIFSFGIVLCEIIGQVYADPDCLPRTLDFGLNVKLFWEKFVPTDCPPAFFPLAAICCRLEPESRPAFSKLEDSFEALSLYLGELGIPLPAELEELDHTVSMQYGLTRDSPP

Row | binding [1] | binding [2] | binding [3] | Substance
1 | binds |  |  | endogenous LIMK2 (from UniProt P53671 1-638) (enzyme)
2 |  | binds | binds | endogenous Nf1 (neurofibromin) (from UniProt P21359-2 1-2818)
